# From paper PMC10675959
# Sequences of proteins named here, by UniProt entry; tags and fusion partners are left off.
# UniProt P17677: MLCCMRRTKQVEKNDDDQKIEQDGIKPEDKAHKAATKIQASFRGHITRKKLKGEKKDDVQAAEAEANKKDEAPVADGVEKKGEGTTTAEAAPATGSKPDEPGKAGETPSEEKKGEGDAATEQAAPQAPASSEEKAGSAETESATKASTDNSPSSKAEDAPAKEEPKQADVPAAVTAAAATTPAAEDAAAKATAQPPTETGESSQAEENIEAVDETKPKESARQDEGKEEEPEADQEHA
# UniProt Q14258: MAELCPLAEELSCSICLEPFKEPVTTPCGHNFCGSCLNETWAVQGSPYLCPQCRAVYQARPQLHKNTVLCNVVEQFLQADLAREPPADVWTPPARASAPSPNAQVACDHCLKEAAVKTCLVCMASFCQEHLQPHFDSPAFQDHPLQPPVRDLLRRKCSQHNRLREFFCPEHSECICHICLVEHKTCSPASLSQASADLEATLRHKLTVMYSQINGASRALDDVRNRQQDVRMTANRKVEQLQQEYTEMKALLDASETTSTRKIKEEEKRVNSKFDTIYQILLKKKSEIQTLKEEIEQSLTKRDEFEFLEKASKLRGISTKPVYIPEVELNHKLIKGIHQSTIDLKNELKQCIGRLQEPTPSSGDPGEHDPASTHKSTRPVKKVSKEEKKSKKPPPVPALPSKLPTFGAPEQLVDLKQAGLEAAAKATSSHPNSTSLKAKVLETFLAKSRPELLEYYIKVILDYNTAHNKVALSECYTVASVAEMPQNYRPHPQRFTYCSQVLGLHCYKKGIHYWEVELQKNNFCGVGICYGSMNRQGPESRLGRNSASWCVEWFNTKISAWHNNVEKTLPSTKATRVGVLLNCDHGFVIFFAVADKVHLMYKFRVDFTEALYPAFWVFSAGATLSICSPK
# No constants are given. Whether binding was seen depends on the method and setting. In cells and extracts the contact can be indirect. A yes stands for co-enrichment or nearness to the bait. Other partners may have been found.
# Molecular target: growth-associated protein 43 (human (endogenous in umbilical cord MSCs)) (UniProt P17677)
# Assay: affinity purification with mass spectrometry; GAP43 immunoprecipitate from MSC lysate analysed by LC-MS/MS; the discussion says MSCs transfected with HIF-1α siRNA
substance,measurement,value
tripartite motif-containing protein 25 (from UniProt Q14258 1-630) (enzyme),binding,binds
